In PMC8384158:
These are yes or no findings as the source states them, for the method shown. In cells and extracts the contact can be indirect. Some entries that bind do so weakly or less than the wild type.

Assays:
[1] = biological target: T1, Bag-1 (endogenous) (human (endogenous in MCF-7, MCF-12A and breast tissue)) (UniProt Q99933); assay: co-IP; untransfected MCF-7 and MCF-12A cells; 250 μg extract with monoclonal α-Bag-1 on Dynabeads Protein G overnight at 4°C; uncoupled beads as control; immunoblot
T1 sequence: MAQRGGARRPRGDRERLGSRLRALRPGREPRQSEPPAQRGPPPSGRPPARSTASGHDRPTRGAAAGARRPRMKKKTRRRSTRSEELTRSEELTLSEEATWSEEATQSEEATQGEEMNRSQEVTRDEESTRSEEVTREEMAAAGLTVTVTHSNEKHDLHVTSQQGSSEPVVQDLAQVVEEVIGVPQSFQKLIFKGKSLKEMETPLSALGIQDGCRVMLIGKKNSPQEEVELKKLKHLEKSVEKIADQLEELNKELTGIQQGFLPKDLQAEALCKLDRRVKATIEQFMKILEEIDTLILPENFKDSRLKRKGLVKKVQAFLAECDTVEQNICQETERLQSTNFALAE

[2] = biological target: T2, TAP–Bag-1S (human) (UniProt Q99933); assay: pull-down; MCF-7 cells transfected with TAP–Bag-1 isoform; 500 μg lysate on IgG Sepharose overnight at 4°C, released with AcTEV protease; bound fraction immunoblotted
T2 sequence: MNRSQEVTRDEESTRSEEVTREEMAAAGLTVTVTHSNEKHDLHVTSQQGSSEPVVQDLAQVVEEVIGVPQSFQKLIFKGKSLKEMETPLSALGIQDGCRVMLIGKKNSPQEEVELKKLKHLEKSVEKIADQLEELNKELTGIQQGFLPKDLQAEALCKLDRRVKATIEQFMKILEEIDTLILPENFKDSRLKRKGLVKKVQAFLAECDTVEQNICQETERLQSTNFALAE

[3] = biological target: T3, TAP–Bag-1L (human) (UniProt Q99933); assay: as above
T3 sequence: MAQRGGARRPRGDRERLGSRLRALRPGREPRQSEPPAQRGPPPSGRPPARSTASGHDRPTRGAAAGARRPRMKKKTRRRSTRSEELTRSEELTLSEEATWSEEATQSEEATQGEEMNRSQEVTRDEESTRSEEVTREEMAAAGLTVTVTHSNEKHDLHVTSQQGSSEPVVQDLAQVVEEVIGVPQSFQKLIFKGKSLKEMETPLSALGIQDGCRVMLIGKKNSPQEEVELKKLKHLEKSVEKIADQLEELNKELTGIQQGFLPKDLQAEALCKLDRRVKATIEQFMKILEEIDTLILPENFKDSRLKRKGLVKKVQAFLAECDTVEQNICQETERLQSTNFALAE

Measured: binding

B1: Calnexin (protein, UniProt P27824 21-592)
chain: HDGHDDDVIDIEDDLDDVIEEVEDSKPDTTAPPSSPKVTYKAPVPTGEVYFADSFDRGTLSGWILSKAKKDDTDDEIAKYDGKWEVEEMKESKLPGDKGLVLMSRAKHHAISAKLNKPFLFDTKPLIVQYEVNFQNGIECGGAYVKLLSKTPELNLDQFHDKTPYTIMFGPDKCGEDYKLHFIFRHKNPKTGIYEEKHAKRPDADLKTYFTDKKTHLYTLILNPDNSFEILVDQSVVNSGNLLNDMTPPVNPSREIEDPEDRKPEDWDERPKIPDPEAVKPDDWDEDAPAKIPDEEATKPEGWLDDEPEYVPDPDAEKPEDWDEDMDGEWEAPQIANPRCESAPGCGVWQRPVIDNPNYKGKWKPPMIDNPSYQGIWKPRKIPNPDFFEDLEPFRMTPFSAIGLELWSMTSDIFFDNFIICADRRIVDDWANDGWGLKKAADGAAEPGVVGQMIEAAEERPWLWVVYILTVALPVFLVILFCCSGKKQTSGMEYKKTDAPQPDVKEEEEEKEEEKDKGDEEEEGEEKLEEKQKSDAEEDGGTVSQEEEDRKPKAEEDEILNRSPRNRKPRRE
binds: [1] | [2] | [3]
